Reference: patent US20070060566A1, “Benzazepine derivatives as histamine h3 antagonists” (priority 2003, published 2007)
Some entries share one result that the patent states for a list of compounds.

Amino acid sequences for entries named in this document (tags omitted). A change or cut given only in a name is not applied to a line headed by its entry.
UniProt Q9Y5N1: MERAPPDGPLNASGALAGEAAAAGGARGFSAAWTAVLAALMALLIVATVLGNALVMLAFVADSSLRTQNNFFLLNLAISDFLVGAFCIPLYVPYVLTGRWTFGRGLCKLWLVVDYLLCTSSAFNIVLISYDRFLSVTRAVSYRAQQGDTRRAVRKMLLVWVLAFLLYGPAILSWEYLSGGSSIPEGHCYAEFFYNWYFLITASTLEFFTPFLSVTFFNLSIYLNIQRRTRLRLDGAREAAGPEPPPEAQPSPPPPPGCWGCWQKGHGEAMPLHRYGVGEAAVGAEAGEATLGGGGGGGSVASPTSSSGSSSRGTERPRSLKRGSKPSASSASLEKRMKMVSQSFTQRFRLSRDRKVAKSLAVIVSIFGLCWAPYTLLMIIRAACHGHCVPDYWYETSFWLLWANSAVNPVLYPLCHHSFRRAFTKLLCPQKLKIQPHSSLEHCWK

Molecular target: T1, human histamine H3 receptor (Homo sapiens, UniProt Q9Y5N1)
T1 construct: expressed in transfected cells; host or cells: CHO K1 cells carrying the pSwitch regulatory plasmid, transfected with pGeneH3, induced with mifepristone; clone 3H3
Experiment: Histamine H3 functional antagonist assay ([35S]GTPγS SPA on membranes)
Format: biochemical
Details: membranes of CHO K1 cells expressing human histamine H3; histamine 0.3 μM

Antagonism (pKb), > 6.5 pKb:
O=C(Nc1ccc2c(c1)CCN(C1CCC1)CC2)c1cccc2ccccc12.O=C(O)C(F)(F)F [Example 233, N-(3-Cyclobutyl-2,3,4,5-tetrahydro-1H-3-benzazepin-7-yl)-1-naphthalenecarboxamide trifluoroacetate]
O=C(Nc1ccc2c(c1)CCN(C1CCC1)CC2)C1CC1 [Example 5, N-(3-Cyclobutyl-2,3,4,5-tetrahydro-1H-3-benzazepin-7-yl)cyclopropanecarboxamide]
O=C(Nc1ccc2c(c1)CCN(C1CCC1)CC2)N1CCCC1 [Example 158, N-(3-Cyclobutyl-2,3,4,5-tetrahydro-1H-3-benzazepin-7-yl)-1-pyrrolidinecarboxamide]
Cc1ccsc1C(=O)Nc1ccc2c(c1)CCN(C1CCC1)CC2 [Example 23, N-(3-Cyclobutyl-2,3,4,5-tetrahydro-1H-3-benzazepin-7-yl)-3-methyl-2-thiophenecarboxamide]
N#Cc1ccc(-c2ccc(C(=O)Nc3ccc4c(c3)CCN(C3CCC3)CC4)nc2)cc1 [Example 103, 5-(4-Cyanophenyl)-N-(3-cyclobutyl-2,3,4,5-tetrahydro-1H-3-benzazepin-7-yl)-2-pyridinecarboxamide]
Cc1nc2ncccc2cc1C(=O)Nc1ccc2c(c1)CCN(C1CCC1)CC2 [Example 47, N-(3-Cyclobutyl-2,3,4,5-tetrahydro-1H-3-benzazepin-7-yl)-2-methyl-1,8-naphthyridine-3-carboxamide]
Cc1c(C(=O)Nc2ccc3c(c2)CCN(C2CCC2)CC3)c(=O)n(-c2ccccc2)n1C.O=C(O)C(F)(F)F [Example 191, N-(3-Cyclobutyl-2,3,4,5-tetrahydro-1H-3-benzazepin-7-yl)-1,5-dimethyl-3-oxo-2-phenyl-2,3-dihydro-1H-pyrazole-4-carboxamide trifluoroacetate]
O=C(Nc1ccc2c(c1)CCN(C1CCC1)CC2)N1CCC(c2ccccn2)CC1 [Example 153, N-(3-Cyclobutyl-2,3,4,5-tetrahydro-1H-3-benzazepin-7-yl)-4-(2-pyridinyl)-1-piperidinecarboxamide]
O=C(Nc1ccc2c(c1)CCN(C1CCC1)CC2)N1CCC(c2ccncc2)CC1 [Example 154, N-(3-Cyclobutyl-2,3,4,5-tetrahydro-1H-3-benzazepin-7-yl)-4-(4-pyridinyl)-1-piperidinecarboxamide]
N#Cc1ccc(-c2cnc(C(=O)Nc3ccc4c(c3)CCN(C3CCC3)CC4)cn2)cc1 [Example 116, 5-(4-Cyanophenyl)-N-(3-cyclobutyl-2,3,4,5-tetrahydro-1H-3-benzazepin-7-yl)-2-pyrazinecarboxamide]
O=C(Nc1ccc2c(c1)CCN(C1CCC1)CC2)N1CCc2cc(F)ccc21 [Example 159, N-(3-Cyclobutyl-2,3,4,5-tetrahydro-1H-3-benzazepin-7-yl)-5-fluoro-2,3-dihydro-1H-indole-1-carboxamide]
Cc1cc(C(=O)Nc2ccc3c(c2)CCN(C2CCC2)CC3)n(C)n1 [Example 121, N-(3-Cyclobutyl-2,3,4,5-tetrahydro-1H-3-benzazepin-7-yl)-1,3-dimethyl-1H-pyrazole-5-carboxamide]
COc1ccc(Cl)cc1NC(=O)Nc1ccc2c(c1)CCN(C1CCC1)CC2 [Example 143, N-[5-Chloro-2-(methyloxy)phenyl]-N′-(3-cyclobutyl-2,3,4,5-tetrahydro-1H-3-benzazepin-7-yl)urea]
O=C(Nc1ccc2c(c1)CCN(C1CCC1)CC2)c1ccsc1 [Example 62, N-(3-Cyclobutyl-2,3,4,5-tetrahydro-1H-3-benzazepin-7-yl)-3-thiophenecarboxamide]
O=C(Nc1ccc2c(c1)CCN(C1CCC1)CC2)c1cncc(-n2ccnc2)c1 [Example 124, N-(3-Cyclobutyl-2,3,4,5-tetrahydro-1H-3-benzazepin-7-yl)-5-(1H-imidazol-1-yl)-3-pyridinecarboxamide]
Cn1cnc(C(=O)Nc2ccc3c(c2)CCN(C2CCC2)CC3)c1 [Example 70, N-(3-Cyclobutyl-2,3,4,5-tetrahydro-1H-3-benzazepin-7-yl)-1-methyl-1H-imidazole-4-carboxamide]
O=C(Nc1ccc2c(c1)CCN(C1CCC1)CC2)c1ccc(F)cc1 [Example 22, N-(3-Cyclobutyl-2,3,4,5-tetrahydro-1H-3-benzazepin-7-yl)-4-fluorobenzamide]
O=C(Nc1ccc2c(c1)CCN(C1CCC1)CC2)c1ccc2c(c1)CCO2.O=C(O)C(F)(F)F [Example 228, N-(3-Cyclobutyl-2,3,4,5-tetrahydro-1H-3-benzazepin-7-yl)-2,3-dihydro-1-benzofuran-5-carboxamide trifluoroacetate]
O=C(Nc1ccc2c(c1)CCN(C1CCC1)CC2)c1c[nH]c2ccccc12.O=C(O)C(F)(F)F [Example 224, N-(3-Cyclobutyl-2,3,4,5-tetrahydro-1H-3-benzazepin-7-yl)-1H-indole-3-carboxamide trifluoroacetate]
O=C(Nc1ccc2c(c1)CCN(C1CCC1)CC2)c1cnc(N2CCCCC2)cn1 [Example 113, N-(3-Cyclobutyl-2,3,4,5-tetrahydro-1H-3-benzazepin-7-yl)-5-(1-piperidinyl)-2-pyrazinecarboxamide]
O=C(Nc1ccc2c(c1)CCN(C1CCC1)CC2)c1ccc(-c2cccnc2)cc1 [Example 12, N-(3-Cyclobutyl-2,3,4,5-tetrahydro-1H-3-benzazepin-7-yl)-4-(3-pyridinyl)benzamide]
O=C(Nc1ccc2c(c1)CCN(C1CCC1)CC2)c1cncnc1 [Example 50, N-(3-Cyclobutyl-2,3,4,5-tetrahydro-1H-3-benzazepin-7-yl)-5-pyrimidinecarboxamide]
Cc1cc(C(=O)Nc2ccc3c(c2)CCN(C2CCC2)CC3)nn1C [Example 75, N-(3-Cyclobutyl-2,3,4,5-tetrahydro-1H-3-benzazepin-7-yl)-1,5-dimethyl-1H-pyrazole-3-carboxamide]
O=C(Nc1ccc2c(c1)CCN(C1CCC1)CC2)c1cnc(N2CCCC2)cn1 [Example 112, N-(3-Cyclobutyl-2,3,4,5-tetrahydro-1H-3-benzazepin-7-yl)-5-(1-pyrrolidinyl)-2-pyrazinecarboxamide]
O=C(Nc1ccc2c(c1)CCN(C1CCC1)CC2)c1cnccc1C(F)(F)F [Example 39, N-(3-Cyclobutyl-2,3,4,5-tetrahydro-1H-3-benzazepin-7-yl)-4-(trifluoromethyl)nicotinamide]
COc1cc2ccccc2cc1C(=O)Nc1ccc2c(c1)CCN(C1CCC1)CC2.O=C(O)C(F)(F)F [Example 266, N-(3-Cyclobutyl-2,3,4,5-tetrahydro-1H-3-benzazepin-7-yl)-3-(methyloxy)-2-naphthalenecarboxamide trifluoroacetate]
Cc1noc(C)c1C(=O)Nc1ccc2c(c1)CCN(C1CCC1)CC2 [Example 122, N-(3-Cyclobutyl-2,3,4,5-tetrahydro-1H-3-benzazepin-7-yl)-3,5-dimethyl-4-isoxazolecarboxamide]
Cn1nc2c(c1C(=O)Nc1ccc3c(c1)CCN(C1CCC1)CC3)CCCC2.O=C(O)C(F)(F)F [Example 211, N-(3-Cyclobutyl-2,3,4,5-tetrahydro-1H-3-benzazepin-7-yl)-2-methyl-4,5,6,7-tetrahydro-2H-indazole-3-carboxamide trifluoroacetate]
Cc1nn(-c2ccccc2)nc1C(=O)Nc1ccc2c(c1)CCN(C1CCCC1)CC2.O=C(O)C(F)(F)F [Example 280, N-(3-Cyclopentyl-2,3,4,5-tetrahydro-1H-3-benzazepin-7-yl)-5-methyl-2-phenyl-2H-1,2,3-triazole-4-carboxamide trifluoroacetate]
O=C(Nc1ccc2c(c1)CCN(C1CCC1)CC2)c1ccc(-c2ccccc2)nc1 [Example 78, N-(3-Cyclobutyl-2,3,4,5-tetrahydro-1H-3-benzazepin-7-yl)-6-phenyl-3-pyridinecarboxamide]
O=C(Nc1ccc2c(c1)CCN(C1CCC1)CC2)N1CCCc2ccccc21 [Example 148, N-(3-Cyclobutyl-2,3,4,5-tetrahydro-1H-3-benzazepin-7-yl)-3,4-dihydro-1(2H)-quinolinecarboxamide]
O=C(Nc1ccc2c(c1)CCN(C1CCC1)CC2)N1CCC(c2ccc(F)cc2)CC1 [Example 160, N-(3-Cyclobutyl-2,3,4,5-tetrahydro-1H-3-benzazepin-7-yl)-4-(4-fluorophenyl)-1-piperidinecarboxamide]
O=C(Nc1ccc2c(c1)CCN(C1CCC1)CC2)N1CCC(Oc2ccccc2)CC1 [Example 169, N-(3-Cyclobutyl-2,3,4,5-tetrahydro-1H-3-benzazepin-7-yl)-4-(phenyloxy)-1-piperidinecarboxamide]
O=C(Nc1ccc2c(c1)CCN(C1CCC1)CC2)c1ccc2ccccc2c1.O=C(O)C(F)(F)F [Example 185, N-(3-Cyclobutyl-2,3,4,5-tetrahydro-1H-3-benzazepin-7-yl)-2-naphthalenecarboxamide trifluoroacetate]
O=C(Nc1ccc2c(c1)CCN(C1CCC1)CC2)N1CCC(Oc2cccnc2)CC1 [Example 171, N-(3-Cyclobutyl-2,3,4,5-tetrahydro-1H-3-benzazepin-7-yl)-4-(3-pyridinyloxy)-1-piperidinecarboxamide]
N#Cc1ccc(C(=O)Nc2ccc3c(c2)CCN(C2CCC2)CC3)cc1 [Example 2, 4-Cyano-N-(3-cyclobutyl-2,3,4,5-tetrahydro-1H-3-benzazepin-7-yl)benzamide]
